Reference: PubChem BioAssay AID2685 (National Center for Advancing Translational Sciences (NCATS), 2010)
This is one part of the list. Further columns of the screen follow, without active or inactive calls. Most of these compounds were active or inconclusive in the main read-out, so they are no random draw. Potencies come from curve fits of mixed quality, noted in brackets.

Assay: qHTS Assay for Lipid Storage Modulators in Drosophila S3 Cells;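 as to cell number change: cells counted by Cell Tracker Red CMTPX staining in the red channel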
Settings: BODIPY lipid droplet fluorescence, 18-24 h; for cell number change: measured here: cell count max response, cells fed with added oleic acid
Procedure, shortened: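 Drosophila S3 cells got compounds at several concentrations plus oleic acid (400 uM solution). Laser-scanning cytometry with 488 nm excitation read lipid droplets at 500-530 nm and cells at 575-640 nm. Percent activity was relative to 20 uM Triacsin C.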

[1] = measured here: lipid fluorescence (Fed channel) AC50, cells fed with added oleic acid
[2] = measured here: cell number channel AC50, cells fed with added oleic acid

## CCc1ccc(OCC(=O)N(C)C2CCS(=O)(=O)C2)cc1 (stereo not given)
  cell number change: 14.4%
[1]
  AC50: 6.51 µM [falling, single point]

## COC(=O)c1ccc(Cn2c(O)c(N=O)c3ccccc32)o1
  cell number change: -8.58%

## CCOc1ccc(NC(=O)c2sc(NC(C)=O)c(C(=O)OC)c2C)cc1
  cell number change: 10.9%

## CN1CCN(C(=O)/C(=C\c2cccnc2)NC(=O)c2cccc(Br)c2)CC1
  cell number change: -0.236%
[1]
  AC50: 18.4 µM [rising, partial curve]

## CC12CCC(=O)C=C1CCC1C2C(=O)CC2(C)C1CCC2(O)C(=O)CO (stereo not given)
[1]
  AC50: 20.6 µM [falling, partial curve]

## CCn1c(CC(=O)Nc2ccc(F)cc2)nnc1SCC(=O)NC1=NCCS1
  cell number change: -4.17%

## COc1ccc(C(=O)NC(=S)NC2CCCCC2)cc1
  cell number change: -2.89%
[1]
  AC50: 2.91 µM [rising, single point]

## Cc1noc(C)c1S(=O)(=O)NCc1ccc2c(c1)OCO2
  cell number change: -2.53%

## COCCn1nnnc1C(c1ccc(OC)c(OC)c1)N1CCN(c2nc3ccccc3s2)CC1 (stereo not given)
  cell number change: 2.87%
[1]
  AC50: 1.84 µM [rising, partial curve]

## Cc1ccc(OCC(=O)N(Cc2ccc(N(C)C)cc2)C2CCS(=O)(=O)C2)cc1 (stereo not given)
  cell number change: 40.2%
[2]
  AC50: 18.4 µM [rising, single point]
[1]
  AC50: 0.116 µM [falling, single point]

## Cc1cc(C)c(NC(=O)C[N+](C)(C)CC(O)COc2cccc3ccccc23)c(C)c1 (stereo not given)
  cell number change: 12.4%
[2]
  AC50: 4.61 µM [rising, single point]
[1]
  AC50: 5.17 µM [rising, single point]

## CN(C)c1ccc(-c2nnn(CC(=O)Nc3ccc4c(c3)OCCO4)n2)cc1
  cell number change: -24.9%
[1]
  AC50: 20.6 µM [falling, single point]

## Nc1nc(SCc2ccccc2)n[nH]1
  cell number change: -3.4%

## COc1ccccc1OCCNC(=O)CSC(=S)N1CCCC1
  cell number change: -99.9%
[2]
  AC50: 29.1 µM [falling, single point]

## COc1ccc(Cl)cc1S(=O)(=O)N1CCC(C(=O)N2CCOCC2)CC1
  cell number change: 5.78%
[1]
  AC50: 3.66 µM [rising, full curve]

## CCOC(=O)Cc1csc(NC(=O)c2ccc(Br)o2)n1
[2]
  AC50: 4.61 µM [falling, single point]

## Cn1c(Oc2ccc(Cl)cc2)c(C=O)c2ccccc21
  cell number change: -31.2%
[2]
  AC50: 18.4 µM [falling, single point]
[1]
  AC50: 18.4 µM [falling, single point]

## CCCCc1ccc(NC(=O)CSCc2cc(=O)[nH][nH]2)cc1
  cell number change: 18.3%
[1]
  AC50: 0.731 µM [rising, single point]

## C(=NC12CN3CN(CN(C3)C1)C2)c1ccc2c(c1)OCO2
[1]
  AC50: 20.6 µM [falling, partial curve, poor fit]

## CCCOc1ccc(C(=O)N(CC(C)C)c2c(N)n(Cc3ccccc3)c(=O)[nH]c2=O)cc1
  cell number change: 95%

## COc1ccc(Cc2nc3ccc(C(=O)N(C)Cc4nccs4)cc3o2)cc1OC
  cell number change: -64.8%
[2]
  AC50: 18.4 µM [falling, single point]
[1]
  AC50: 5.17 µM [falling, full curve]

## CN(Cc1ccc(F)cc1)C(=O)c1cc(S(=O)(=O)N2CCCCC2)ccc1N1CCOCC1
  cell number change: 97.4%
[2]
  AC50: 29.1 µM [rising, single point]
[1]
  AC50: 0.00461 µM [rising, full curve, poor fit]

## O=C(CCC1CCCCC1)Nc1ccccc1-c1ccccc1
  cell number change: 117%
[2]
  AC50: 23.1 µM [rising, single point]
[1]
  AC50: 6.51 µM [falling, single point]

## Cc1cccc(NC(=S)N(CCCN2CCCC2)Cc2cccn2Cc2ccc(Cl)cc2)c1
  cell number change: -7.38%
[2]
  AC50: 0.731 µM [falling, single point]

## O=C(CCN1C(=O)c2ccccc2C1=O)NCCN1CCOCC1
  cell number change: -2.66%

## CCOC(=O)c1cc2c(C)n(-c3ccc(N(C)C)cc3)c(C)c2cc(C(=O)OCC)c1=O
  cell number change: 7.43%

## O=C(CNC(=O)N1CC(=O)Nc2ccccc21)Nc1ccccc1
  cell number change: 21%
[2]
  AC50: 0.13 µM [rising, full curve, poor fit]

## O=C1N(c2ccccc2)C(c2ccccc2)N2CCCN12 (stereo not given)
  cell number change: -48.4%
[2]
  AC50: 29.1 µM [falling, single point]
[1]
  AC50: 29.1 µM [falling, single point]

## COc1ccc(-c2nn(-c3ccccc3)cc2C(=O)OCC(=O)c2ccc(C)c([N+](=O)[O-])c2)cc1
  cell number change: 19.7%
[2]
  AC50: 0.651 µM [falling, single point]

## COc1cccc(/C=C2\SC(=S)N(CC3CCCO3)C2=O)c1 (stereo not given)
[2]
  AC50: 5.8 µM [rising, single point]
[1]
  AC50: 6.51 µM [rising, partial curve]

## C=CCc1c(C)nn(CC(=O)O)c1-c1ccccc1
  cell number change: 11.9%
[1]
  AC50: 4.11 µM [falling, single point]

## CS(=O)(=O)N(CC(=O)NCCSCc1cccc(Cl)c1)c1ccc2c(c1)OCO2
  cell number change: 4.32%
[1]
  AC50: 0.731 µM [falling, single point]

## CC[n+]1c(C)sc2cc(OC)ccc21
  cell number change: 11.1%
[1]
  AC50: 6.51 µM [falling, single point]

## O=C(O)c1ccccc1C(=O)Nc1ccc(Oc2cccc(C(F)(F)F)c2)nc1
  cell number change: 15.9%
[1]
  AC50: 0.0206 µM [rising, full curve, poor fit]

## On1nnc2ccc3ccccc3c21
[1]
  AC50: 0.0326 µM [falling, full curve, poor fit]

## CCCCNCCOCCOc1ccc(C)cc1[N+](=O)[O-]
  cell number change: 108%
[2]
  AC50: 11.6 µM [rising, partial curve]
[1]
  AC50: 29.1 µM [rising, single point]

## CCN(CC)S(=O)(=O)c1ccc(Cl)c(NC(=O)COc2ccc(OC)cc2)c1
[2]
  AC50: 6.51 µM [rising, single point]
[1]
  AC50: 0.366 µM [rising, partial curve]

## Cc1cccc(N2CCN(C(=S)Nc3ccc4nc(N5CCN(C)CC5)cc(C)c4c3)CC2)c1C
  cell number change: -27.7%
[1]
  AC50: 1.84 µM [falling, partial curve]

## CCN(CC)c1cc(Cl)c2nonc2c1N
  cell number change: -37.1%
[2]
  AC50: 14.6 µM [falling, partial curve]
[1]
  AC50: 20.6 µM [falling, partial curve]
